Measurements taken from PMC11651612.
No constants are given. Whether binding was seen depends on the method and setting. Binding seen in cells or lysates may run through a third protein. Here binding means that the protein was enriched with, or labelled near, the bait; the list need not be complete.

T1: Cdc10-mCherry (C. neoformans) (UniProt J9VMT9)
T1 sequence: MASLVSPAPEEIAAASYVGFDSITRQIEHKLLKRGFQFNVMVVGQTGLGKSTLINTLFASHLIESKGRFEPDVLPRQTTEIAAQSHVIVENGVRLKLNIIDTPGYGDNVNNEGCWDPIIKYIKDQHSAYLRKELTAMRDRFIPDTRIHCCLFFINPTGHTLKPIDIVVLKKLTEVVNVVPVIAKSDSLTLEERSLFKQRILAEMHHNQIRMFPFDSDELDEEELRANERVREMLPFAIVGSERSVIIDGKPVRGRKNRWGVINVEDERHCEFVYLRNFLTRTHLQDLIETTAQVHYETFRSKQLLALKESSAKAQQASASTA

B1: Mannose-6-phosphate isomerase (protein, UniProt J9VQA8 1-177)
chain: MSLVNVTRVVPKSILGASFTSATRRLTTTVPRFGRMPPPAHKMAHFPRITSSLPSEHSEFRTVMWTGESSQLVLMTIPVGGEIGEEIHHVDQHLVFTSGTAKAIVAGEEKEIKAGDLVIVPQGTKHNFVNTGPTPLCLFTVYAPAEHAETTVNRTKEEGDKLEEDGKDEPPEWAVRK
B2: Septin ring protein CDC3 (protein, UniProt J9VUF2 1-461)
chain: MADSYYENQTHSPSPQGEQYSNDNSERIASPSGGVVSSEGYLANRDAQPTPAAVAPARKKLSSWVGFSNLPNQVHRRSVRRGFQFVTMVVGESGLGKSTLINTLFETKLYQPKQIPTPGADRGKTVQIESISADIEENGVRLKLTVVDTPGFGDFVNNEESWKPIVDNIEARFDAFLEQENRVNRSKLLDNRVHACLYFIQPTGHSLKAIDIEFMRRLHNKVNLIPIIAKADTMTDDEIIAFKQRILADIAHYGIQIFQPFQYENEDEETIQENEEIISKVPFAVVGSDSIVQSPDGRQVRGRSYPWGVIEVDNEDHCDFVKLRQMLVRTHMEELREHTNDVLYENYRTEKLRAMGVQQDESVFKETNPAAKQAEERALHEAKLAKMEAEMKIVFQQKVQEKEQKLKQSEEELYARHREMKDALEKQKQELEDKRRRIESGRPLTPEKGSIQQKKRFGLGK
B3: CAP-Gly domain-containing protein (protein, UniProt J9W340 1-1057)
chain: MSRLPQLSTPGRPSPTTGIPTPTARRPRSSLGPGQSGTAVSDDLMDRAFQEALRNRPPSSLRSNDSPNELSESTTSTSHLAAPSATYGLAAPRTPGVRPRTPSTLGLGAPVTPSATSRSVSRAGLGVRSSLSTSTTAPFTPRRTSLASSTMSSTPFARRPESRASEREPTSAKWVPTVGERVRISSMGYEGVLRFYGTTEFKEGVWAGVELEGGFKGKGKNDGTVEGVQYFSCPPKCGIFVTAVKLSPPTTGTSRPASVASSHRSTASYSMSGRATPSISGRATPSISGRATPSRPPSATPGRVTRAVSTAHRTRPSISGADDEATPARTALGNSTNANAGIDSRITVGSRASRYIGMTAKQLDNARAGTTTPASKLAASTSTFNGQTPRVSRVSMGMGGTPARPRQSMGGLVTPRVRPRASGIGDMPPPPSPGNINRVLTARQMETLEEEIRELKRRNGELEEDLKRMPELRDEDVTEMETLRQEMERSKQELEFLKAQLQTSDTNATDAVKILEELQEEHTAEQAELEAKLREIGDLRKELKLANERAEEELAAGAEARKDEVQKMLERAQAAEAEVNSMQVLVDDLTDAGRQMISLNETKQFELEERIRELEDKNRSLDEKLQKAREEQEKALLPPSPSTRQREAATAAEIDNETLNAQVKHLQNKLNLLEEELEEARAQAETDAETWKGKMNRVKDGEKAAREEIVALKSEIKELKEQANGARGKIGELEGALKENQVALESARAEIEGLRTEAAEAASLRTTLQAANTNEKALSAAQEEIKELKTKLTTAINAEAKVVSDTKDRINDLEAKIASLEAEITTLKQTAESSIENNLPTSRPKLSNSSTSSENAEKKLIGLQHIVQELSTENADLKEQCESLKEEVSLMKEEVKLLEEASADIPGAQGNQKELLAAKATIKELNREVAELEALVESKIYREDELETRAAELEREIVLYKSSSKRSNGEPPHSAASTTFSHSSDGHSSSTANGGSQGTGEGTERCELCEGPHDLDACPVFAGNLSTEGTKKGGRWCADCESNEHDTSECPMAEDVF
B4: Molybdopterin binding domain-containing protein (protein, UniProt J9VQ43 1-337)
chain: MFIPFSRLLQTVARPFAPLPSRSLPIRIAFGRIYLRTMSTEAPIVPTSPSSVADPLGKGKYIQTAGCIIVGDEVLNGKTKDTNSNFFAQYCFDLGIELKRIEVIADDEDEIIEAARRMTEKYDFVVTSGGIGPTHDDITYASLAKAFNLPLVHHPETLRRMWALTTPERRAELEKATPAQREARERMALFPTQKEEGDVKSEAIFVEADKWVPVVRLAGKLCVFPGIPSLFQQLLLALTPYLPLPPASSKPFRHLIYTGKPESAIAPYLTELQARVKKEGIRIGSYPYLYQGVHISLIGHNIERVKELGREVIQEVDGKVVAEGKLGGDSTSTTSKM
B5: Iron-sulfur clusters transporter ATM1, mitochondrial (protein, UniProt J9VWU3 56-732)
chain: QLPRHGLHRQSLAFFSTSHRRQTSPPPSPRTTSQSPTVPSKASTTPPTSLNTSKPIATESQDKTDWSIIVKLAGNIWPKNNPNVKFRVIGALTLLVAGKVLNVQVPFFFKTIVDSLNVPITESTTVWVLAGASIAGYGAARILTTLFGELRNAVFASVAQNAIRKVARETFEHLLNMDMKFHLERQTGGLTRAIDRGTKGISFILSSIVFHVIPTALEISMVCGILSWKFGWDFAAVTAITMLLYTWFTIKTTAWRTTFRKQANAADNKGATVAVDSLINYEAVKSFNNEKYEVAQYDTTLKAYEKASVKIATSLAALNSGQNFIFSSALTMMMLLGAQGIVKGTMTVGDLVLVNQLVFQLSLPLNFLGTVYRELRQSLIDMDVMFNLQSLNSAIKDTPTAKPLHLKGGEIEFRNVAFAYHPERPIFRDLSFKIPAGQKVAIVGPSGCGKSTVFRLLFRFYDSNSGQILIDGQDIKTVTLDSLRRSIGVVPQDTPLFHADILHNIRYGNLEATDEQVYEAARKAHVEGTIQRLPEKYATKVGERGLMISGGEKQRLAVARVLLKDPPVLFFDEATSALDVYTETELMRNINSILTGQGKTSVFIAHRLRTISDADLIIVLQDGYVAEQGTHEQLLAMPGGVYHRLWQAQLTESTQPTDEEIERQREELEVVDEKKKQ
B6: Carnitine acetyltransferase (protein, UniProt J9VIM7 1-759)
chain: MIIPSSIHRIQSVHTPLRTLRATSLFTVSAPTHPASITARNVSRRMFAASTYRSNQPKTFENQSKLPRLPVPDLEASLEGYLKSLGPLLEEKYDKASLSNEVEKRQLYVKDFASTGGLGRVLQERLKDLDHVSPNNWLNDTLWLALAYHTWRAPLLVNSNWWLCFAEDPLSPPPPSLPSSTKESNATRAQTATIKVPNPSPLTDVPAGGQGGGKEWLVSGSIDPPVQYEKVVKKEWITPWQIRRAAWIARRFAEFRTKLEREEIKPDEIKGVKFCMNQYANMFNLSRIPLPNCDAFSTPSPLSTHLSLLVDDYYYAIDIFSPPSSSADGVPEPLPAGEIEKRFQAAVDDAKRRKERGERAVEVGVLGADDRDNWTKNREHLLLLSPSNRSTLTSLSTSLLALSLDPYTLPSVPPPSGDPLRLPAVDAQVRNCATGIDGGRNRWFDKAVSVLVETNGRAGIMGEHSPVDALIPSIVVEYVLDKPVDGSQFMSSAPVPVATGKSGEGWEKLDWAVDEAILQEIEQVKQRNQKLIDDSDASQLWWGEYASEWIKKIAKQAPDAYIQQALQLAWFLDQGYPTATYETASTRTMLHGRTDVIRSLTSESRAFVKAMVNPESTAEERYRLLSSACQAHNALTKRSSSGHGYDRHLMGLKVQLRAGETHPLFEDEVYAKSQEWKLSTSGLSAGGKFTATGFGAAWPDGYGINYMAGPHLIKFGIESKFSCEKTSTQRFKHNIVQVLRDMRAVCEAVGGVDASRAKL
B7: ELYS domain-containing protein (protein, UniProt J9VJ17 1-767)
chain: MAIADQFAIPITILRHFDLSSSPWSSQAEIFTKRRERSSNGKLFFDRLLEIAGIDGPSLYPPKSPADVRRLLHSIQSTELDRLKKDCYFYYLLLDYDGQSEAQKPNGHVEGMDVDDEDAILAVKTVEATKVAGKFARRRCMPRNWKIFIDGYWALDHGLWEIAVDKLSDPSISEVNFVSEIVQSLSTSVSPPQLACSLLHSFFLSTQPNFPNPSFESDVRLIATASATSIFTALGCIRQESSPEQRKRMREVVWSWMLGAPRTPCGAGNHVVQSKALKELTHAPLFPEEETHLIEFLSHPPRSIPSPALSQLHDLMTLRLIHQGHYNQVFQLDKKLAGNGAGTQGDKQKRREMVREFISILPETHRRVLLADVEGNLRRGEEEINGFSEDVDMAGSWLQVDGVEEPTPAPAFTLVSGSLSMTVPASVPAPVAIASTPIRSLPSSSNVVRPAHVASVGSPSQRPERTHSPFGGPPRFAQGATVSSSSPRQSLAFTGSPFSLPQKTAAAKTHGSSEKPRPKMVINDDQEAEETLQKEPVRGKGKGVVDGKGGLRRSTRRISMSVEPEELPVDENHPIEPIAEDTAWSPSHAVVQEPKSTRKGGRKTRDKTPPMPVSPSRRSTRARKSALDPLATDDEPLARRTRGASVHPEPSATPATRGRMTRSVSRALLEDSDHETVDVDMSVPPSKRNGTAVPGSISKKRRGSVATSEITDDGLATVVETPRVRRSNRKAAPSPTPSVQGSEAGKIRRKKENAAPTPRMATRSRRV
B8: Protein transport protein SFT2 (protein, UniProt J9VP98 1-206)
chain: MSDSAQRSFRSQLSSFRWANSVQDDSQPAPPPTTSNPFSRAWNSVSGYIPLRNEGSSQEEEAYFALSRWERFLGFLACCAGGIACFGIAFLFLPILAIKPRKFALAFTLGSCLFMLGFAILHGPWNHFKHILSPERLPFSLCYFGSLGLTLFFAIGIRSTIGTLLASIIQVVALLSYVVAYFPGGMTTLRLGGQMAMRGAGSLLPI
B9: Glutaredoxin (protein, UniProt J9VKY5 1-146)
chain: MSFTALRRLTTLSTHITRTPISTRYFATTQTAKIGSSISTPNMTADVKSLVDKAIADNKVVVFSKTYCPYCKRAKSYLAEDTKDIEILELDERDDGAAIQAYLKELNGQGTVPHVYINKEFIGGSSDLLKLSHEQVKQKISAASSA
B10: Pantetheine-phosphate adenylyl transferase (protein, UniProt J9VGG8 1-363)
chain: MTSKIDLQDHTILVLPFTPSLLRDPSPLYSPILDVLPRSSKKSFTVFFSTPAGSISSEQSAIQSISGVGSNQEQLYSLLRRTPQESFKALQSFLGHIYTALWTAQWKCGNVLLDVEVHFEGESGKLGDKLLRGKDDEEEYQLIKVEGVQETDLVASLDQIIPSPFTLLSLPYASLSSHQSEPYILLDEGRTPGFPVVALGGTFDRLHAAHKLLLHLGYFLAREKLIVGVMADDLLHTKAHADLVQPLNQRLDGVNAFLGRLGDGSIKLNVVEIHDALGPTRSDPNVQALVVSHETLSGGKYVNSTRKEGGLQELELFVVDVIAENGDMNLKKEMDESRLKKMKMGSTGVRNWIAERGTGEQDR

These binders were tested against T1, Cdc10-mCherry (C. neoformans) (assay: affinity purification with mass spectrometry; mCherry-tagged septin captured from C. neoformans lysate on RFP-Trap agarose, 4 h at 4°C, washed with TBS with 2 M urea pH 7.5; GeLC-MS/MS; untagged H99 as negative control; hits logFC >2 and adjusted p <0.001 (text-named hits <0.05); exponential cultures at ~25°C or shifted to 37°C for 2 h; N = 5).

binding, binds:
B1
B2
B3
B4
B5
B6
B7
B8
B9
B10
